According to patent US9518974B2, “Sensor system for detecting organophosphorus residues by inducing coagulation of gold nanoparticles” (priority 2014, dated 2016):

Key:
[1] = Quantifying organophosphorus pesticide using HPLC
[2] = not given; remark: listed apart in the source
[3] = Quantifying organophosphorus pesticide with gold nanoparticles and EGFP; settings: for Reliability: present method vs HPLC

Row | Compound | absorbance at 670 nm (compound 1 ppm in 10% methanol, 10 nM gold nanoparticles, 0.3 mM imidazole 2:1:1) | peak position of the gold nanoparticles absorption spectrum (diazinon 1 ppm + 10 nM gold nanoparticles 2:1, no imidazole) | new peak in absorption spectrum (pesticide 1 ppm, 0.3 mM imidazole, 10 nM gold nanoparticles 2:1:1) | HPLC mean ± SD ([1]; Table 1, sample 1, added 0.080 ppm) | HPLC mean ± SD ([1]; Table 1, sample 2, added 0.170 ppm) | HPLC mean ± SD ([1]; Table 1, sample 3, added 0.300 ppm) | HPLC mean ± SD ([1]; Table 2, sample 1, added 0.085 ppm) | HPLC mean ± SD ([1]; Table 2, sample 2, added 0.170 ppm) | HPLC mean ± SD ([1]; Table 2, sample 3, added 0.340 ppm) | peak position of the gold nanoparticles absorption spectrum ([2]; diazinon 1 ppm + 10 nM gold nanoparticles 2:1, no EGFP) | new peak in absorption spectrum ([2]; pesticide 1 ppm, 5 μg/mL EGFP, 10 nM gold nanoparticles 2:1:1) | pH of greatest difference in absorbance at 670 nm ([2]; presence vs absence of pesticide, pH 1.4 to 12.4, EGFP) | Reliability ([3]; sample 1, added 0.085 ppm) | Reliability ([3]; sample 2, added 0.170 ppm) | Reliability ([3]; sample 3, added 0.340 ppm) | the present method mean ± SD ([3]; sample 1, added 0.085 ppm) | the present method mean ± SD ([3]; sample 2, added 0.170 ppm) | the present method mean ± SD ([3]; sample 3, added 0.340 ppm) | shift of the peak of gold nanoparticle absorption spectrum (0.3 mM imidazole + 10 nM gold nanoparticles 1:1, no pesticide)
1 | CCOP(=S)(OCC)Oc1cc(C)nc(C(C)C)n1 [diazinon] | ≥ 0.41 | 520 nm | 670 nm | 0.082 ± 0.002 ppm | 0.149 ± 0.004 ppm | 0.263 ± 0.064 ppm | 0.082 ± 0.002 ppm | 0.149 ± 0.002 ppm | 0.263 ± 0.014 ppm | 520 nm | 670 nm | 8.4 | 151.6% | 104.7% | 94.3% | 0.124 ± 0.015 ppm | 0.156 ± 0.010 ppm | 0.248 ± 0.012 ppm | 
2 | c1c[nH]cn1 [imidazole] |  |  |  |  |  |  |  |  |  |  |  |  |  |  |  |  |  |  | the shift of the peak was not observed

Where two headings read alike, the source gives them in different places.
